# Source: the supplement of paper PMC10849652
# By UniProt entry, the sequences of proteins in these tests, tags left out. Where a name states a change or a piece, a line headed by the entry shows the natural chain unless it says otherwise.
# UniProt Q3B726, whole entry, looked up: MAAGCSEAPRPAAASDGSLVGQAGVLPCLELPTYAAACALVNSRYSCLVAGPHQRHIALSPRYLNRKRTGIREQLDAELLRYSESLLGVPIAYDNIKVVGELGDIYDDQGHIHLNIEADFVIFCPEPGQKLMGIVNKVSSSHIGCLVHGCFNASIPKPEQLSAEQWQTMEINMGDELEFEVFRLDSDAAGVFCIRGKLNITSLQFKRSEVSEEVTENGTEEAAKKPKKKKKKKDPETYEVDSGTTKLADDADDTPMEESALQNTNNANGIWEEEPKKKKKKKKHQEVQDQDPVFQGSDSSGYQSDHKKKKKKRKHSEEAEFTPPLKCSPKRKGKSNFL
# UniProt P68036, whole entry, looked up: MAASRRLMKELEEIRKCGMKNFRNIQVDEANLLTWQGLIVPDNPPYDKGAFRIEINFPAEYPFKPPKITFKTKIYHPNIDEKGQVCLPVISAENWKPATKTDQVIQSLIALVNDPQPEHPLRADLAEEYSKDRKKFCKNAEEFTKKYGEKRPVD
# UniProt Q712K3: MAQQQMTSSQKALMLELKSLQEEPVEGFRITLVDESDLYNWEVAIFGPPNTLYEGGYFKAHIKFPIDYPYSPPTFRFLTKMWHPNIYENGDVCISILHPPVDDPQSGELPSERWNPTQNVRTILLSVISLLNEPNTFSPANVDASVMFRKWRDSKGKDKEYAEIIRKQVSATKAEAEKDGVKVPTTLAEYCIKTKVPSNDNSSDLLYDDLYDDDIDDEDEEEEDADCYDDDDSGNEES
# UniProt P83876: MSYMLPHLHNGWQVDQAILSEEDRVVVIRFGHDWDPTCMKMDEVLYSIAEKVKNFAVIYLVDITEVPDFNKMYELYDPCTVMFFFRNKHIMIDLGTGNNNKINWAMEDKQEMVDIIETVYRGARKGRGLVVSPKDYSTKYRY
# UniProt Q16881, whole entry, looked up: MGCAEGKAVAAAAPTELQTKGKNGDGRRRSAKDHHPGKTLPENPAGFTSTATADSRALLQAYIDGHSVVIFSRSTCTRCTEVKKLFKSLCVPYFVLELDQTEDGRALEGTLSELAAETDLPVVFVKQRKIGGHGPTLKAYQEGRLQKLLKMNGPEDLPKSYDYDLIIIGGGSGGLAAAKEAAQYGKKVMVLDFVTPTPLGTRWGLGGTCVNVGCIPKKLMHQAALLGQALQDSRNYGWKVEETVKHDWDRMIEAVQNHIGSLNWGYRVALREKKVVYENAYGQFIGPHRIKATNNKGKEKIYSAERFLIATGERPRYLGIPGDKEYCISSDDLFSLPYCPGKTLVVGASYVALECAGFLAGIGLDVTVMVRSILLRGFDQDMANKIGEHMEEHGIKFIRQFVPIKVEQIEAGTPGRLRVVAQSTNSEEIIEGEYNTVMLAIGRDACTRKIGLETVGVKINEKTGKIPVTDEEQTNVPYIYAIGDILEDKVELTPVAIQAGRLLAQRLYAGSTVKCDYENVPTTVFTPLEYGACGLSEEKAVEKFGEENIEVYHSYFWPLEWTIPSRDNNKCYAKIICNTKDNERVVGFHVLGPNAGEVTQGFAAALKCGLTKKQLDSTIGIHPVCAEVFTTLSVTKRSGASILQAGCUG
# UniProt Q7Z7E8: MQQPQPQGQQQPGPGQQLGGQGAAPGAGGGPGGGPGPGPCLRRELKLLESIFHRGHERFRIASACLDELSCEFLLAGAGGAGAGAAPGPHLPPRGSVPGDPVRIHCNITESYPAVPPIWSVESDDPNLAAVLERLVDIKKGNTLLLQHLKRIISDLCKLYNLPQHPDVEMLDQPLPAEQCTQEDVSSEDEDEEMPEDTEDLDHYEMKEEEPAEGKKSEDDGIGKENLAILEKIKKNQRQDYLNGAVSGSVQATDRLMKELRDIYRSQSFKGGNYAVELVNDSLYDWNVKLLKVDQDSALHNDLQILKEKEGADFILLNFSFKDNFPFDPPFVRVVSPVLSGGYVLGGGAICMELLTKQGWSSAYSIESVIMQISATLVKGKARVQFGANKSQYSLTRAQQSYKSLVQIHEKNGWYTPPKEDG
# UniProt P23258, whole entry, looked up: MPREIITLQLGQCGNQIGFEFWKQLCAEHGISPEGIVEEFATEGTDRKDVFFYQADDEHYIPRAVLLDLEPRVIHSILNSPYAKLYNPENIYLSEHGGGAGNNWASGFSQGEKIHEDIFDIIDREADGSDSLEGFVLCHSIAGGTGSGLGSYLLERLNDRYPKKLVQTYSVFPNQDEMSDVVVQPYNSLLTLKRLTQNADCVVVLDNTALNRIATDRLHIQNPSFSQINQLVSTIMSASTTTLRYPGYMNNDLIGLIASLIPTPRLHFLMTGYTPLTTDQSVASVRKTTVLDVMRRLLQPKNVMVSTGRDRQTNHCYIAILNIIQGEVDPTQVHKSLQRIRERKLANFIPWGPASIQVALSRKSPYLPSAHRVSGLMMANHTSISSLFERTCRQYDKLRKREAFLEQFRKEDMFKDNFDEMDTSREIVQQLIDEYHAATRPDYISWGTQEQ
# UniProt P15374: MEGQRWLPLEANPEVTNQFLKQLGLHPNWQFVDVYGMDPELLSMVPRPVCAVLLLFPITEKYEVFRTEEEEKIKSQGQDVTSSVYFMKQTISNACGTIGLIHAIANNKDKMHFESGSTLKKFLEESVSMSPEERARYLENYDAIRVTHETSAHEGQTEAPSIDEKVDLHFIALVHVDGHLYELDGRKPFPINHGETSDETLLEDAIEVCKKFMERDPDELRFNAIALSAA
# UniProt Q9H4B7, whole entry, looked up: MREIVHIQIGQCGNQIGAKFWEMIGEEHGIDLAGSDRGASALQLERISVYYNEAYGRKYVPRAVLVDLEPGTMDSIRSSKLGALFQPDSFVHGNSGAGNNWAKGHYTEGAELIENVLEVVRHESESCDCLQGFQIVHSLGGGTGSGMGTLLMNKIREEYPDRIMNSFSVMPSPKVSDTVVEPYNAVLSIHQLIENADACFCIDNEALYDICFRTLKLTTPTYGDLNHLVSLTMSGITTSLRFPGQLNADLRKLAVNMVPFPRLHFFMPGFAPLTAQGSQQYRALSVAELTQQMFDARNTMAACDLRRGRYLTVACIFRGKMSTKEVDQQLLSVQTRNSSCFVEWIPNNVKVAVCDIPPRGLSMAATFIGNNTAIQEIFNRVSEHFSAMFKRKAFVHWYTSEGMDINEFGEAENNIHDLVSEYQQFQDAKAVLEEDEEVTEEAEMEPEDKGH
# UniProt P63279, whole entry, looked up: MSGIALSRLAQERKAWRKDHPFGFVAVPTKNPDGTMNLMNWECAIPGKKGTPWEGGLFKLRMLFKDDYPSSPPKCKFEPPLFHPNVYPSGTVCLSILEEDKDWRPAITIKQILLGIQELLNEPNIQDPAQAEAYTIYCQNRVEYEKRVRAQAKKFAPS
# UniProt P40222: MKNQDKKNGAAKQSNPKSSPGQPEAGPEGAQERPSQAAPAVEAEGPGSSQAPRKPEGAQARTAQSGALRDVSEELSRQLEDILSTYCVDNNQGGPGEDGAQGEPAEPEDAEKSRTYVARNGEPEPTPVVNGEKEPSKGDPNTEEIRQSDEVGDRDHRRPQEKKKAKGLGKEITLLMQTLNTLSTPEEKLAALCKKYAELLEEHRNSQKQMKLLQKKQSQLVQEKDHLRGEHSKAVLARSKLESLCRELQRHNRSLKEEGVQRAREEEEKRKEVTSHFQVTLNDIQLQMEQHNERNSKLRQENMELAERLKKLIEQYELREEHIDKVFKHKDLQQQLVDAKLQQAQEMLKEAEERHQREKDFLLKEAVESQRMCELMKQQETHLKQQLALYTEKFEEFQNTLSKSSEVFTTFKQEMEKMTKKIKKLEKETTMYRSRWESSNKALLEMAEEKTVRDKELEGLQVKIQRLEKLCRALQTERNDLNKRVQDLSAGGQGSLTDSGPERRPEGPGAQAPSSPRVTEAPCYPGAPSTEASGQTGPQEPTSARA
# UniProt Q9BSJ2, whole entry, looked up: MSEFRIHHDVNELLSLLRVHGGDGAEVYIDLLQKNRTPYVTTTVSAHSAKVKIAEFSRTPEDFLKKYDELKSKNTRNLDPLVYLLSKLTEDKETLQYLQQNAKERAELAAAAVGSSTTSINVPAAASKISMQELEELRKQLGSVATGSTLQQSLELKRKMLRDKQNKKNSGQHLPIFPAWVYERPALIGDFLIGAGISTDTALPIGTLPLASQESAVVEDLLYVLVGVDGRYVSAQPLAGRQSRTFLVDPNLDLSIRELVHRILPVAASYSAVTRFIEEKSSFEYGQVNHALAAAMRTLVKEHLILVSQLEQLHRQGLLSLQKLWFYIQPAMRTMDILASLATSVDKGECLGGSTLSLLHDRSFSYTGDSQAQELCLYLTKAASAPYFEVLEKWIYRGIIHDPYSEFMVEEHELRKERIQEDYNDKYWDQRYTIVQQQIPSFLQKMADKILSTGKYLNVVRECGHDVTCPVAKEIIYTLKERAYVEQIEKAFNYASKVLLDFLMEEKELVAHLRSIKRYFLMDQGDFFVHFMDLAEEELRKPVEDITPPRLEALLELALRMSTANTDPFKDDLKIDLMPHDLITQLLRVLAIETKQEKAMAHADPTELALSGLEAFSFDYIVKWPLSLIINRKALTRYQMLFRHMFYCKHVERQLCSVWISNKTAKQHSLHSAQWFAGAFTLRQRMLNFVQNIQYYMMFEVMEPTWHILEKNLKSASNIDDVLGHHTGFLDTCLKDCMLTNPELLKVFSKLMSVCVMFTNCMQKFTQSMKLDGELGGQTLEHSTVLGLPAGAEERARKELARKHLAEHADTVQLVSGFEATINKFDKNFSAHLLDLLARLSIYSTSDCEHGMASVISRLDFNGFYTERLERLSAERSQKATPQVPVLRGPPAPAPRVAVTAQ
# UniProt Q9BTX7: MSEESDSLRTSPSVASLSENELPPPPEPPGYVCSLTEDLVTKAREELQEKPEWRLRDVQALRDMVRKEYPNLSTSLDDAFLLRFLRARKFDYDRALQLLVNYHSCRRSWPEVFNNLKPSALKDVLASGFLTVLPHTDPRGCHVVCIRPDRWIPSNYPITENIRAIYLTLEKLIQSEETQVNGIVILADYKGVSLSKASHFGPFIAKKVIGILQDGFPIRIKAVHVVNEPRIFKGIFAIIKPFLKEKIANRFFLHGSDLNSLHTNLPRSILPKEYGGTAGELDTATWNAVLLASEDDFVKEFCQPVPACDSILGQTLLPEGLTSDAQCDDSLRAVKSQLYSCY
# UniProt P63146, whole entry, looked up: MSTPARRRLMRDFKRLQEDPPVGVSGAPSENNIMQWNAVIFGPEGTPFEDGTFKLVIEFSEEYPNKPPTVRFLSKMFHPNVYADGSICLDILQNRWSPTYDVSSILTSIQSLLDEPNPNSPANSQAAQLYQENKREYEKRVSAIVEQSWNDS
# UniProt O95155, whole entry, looked up: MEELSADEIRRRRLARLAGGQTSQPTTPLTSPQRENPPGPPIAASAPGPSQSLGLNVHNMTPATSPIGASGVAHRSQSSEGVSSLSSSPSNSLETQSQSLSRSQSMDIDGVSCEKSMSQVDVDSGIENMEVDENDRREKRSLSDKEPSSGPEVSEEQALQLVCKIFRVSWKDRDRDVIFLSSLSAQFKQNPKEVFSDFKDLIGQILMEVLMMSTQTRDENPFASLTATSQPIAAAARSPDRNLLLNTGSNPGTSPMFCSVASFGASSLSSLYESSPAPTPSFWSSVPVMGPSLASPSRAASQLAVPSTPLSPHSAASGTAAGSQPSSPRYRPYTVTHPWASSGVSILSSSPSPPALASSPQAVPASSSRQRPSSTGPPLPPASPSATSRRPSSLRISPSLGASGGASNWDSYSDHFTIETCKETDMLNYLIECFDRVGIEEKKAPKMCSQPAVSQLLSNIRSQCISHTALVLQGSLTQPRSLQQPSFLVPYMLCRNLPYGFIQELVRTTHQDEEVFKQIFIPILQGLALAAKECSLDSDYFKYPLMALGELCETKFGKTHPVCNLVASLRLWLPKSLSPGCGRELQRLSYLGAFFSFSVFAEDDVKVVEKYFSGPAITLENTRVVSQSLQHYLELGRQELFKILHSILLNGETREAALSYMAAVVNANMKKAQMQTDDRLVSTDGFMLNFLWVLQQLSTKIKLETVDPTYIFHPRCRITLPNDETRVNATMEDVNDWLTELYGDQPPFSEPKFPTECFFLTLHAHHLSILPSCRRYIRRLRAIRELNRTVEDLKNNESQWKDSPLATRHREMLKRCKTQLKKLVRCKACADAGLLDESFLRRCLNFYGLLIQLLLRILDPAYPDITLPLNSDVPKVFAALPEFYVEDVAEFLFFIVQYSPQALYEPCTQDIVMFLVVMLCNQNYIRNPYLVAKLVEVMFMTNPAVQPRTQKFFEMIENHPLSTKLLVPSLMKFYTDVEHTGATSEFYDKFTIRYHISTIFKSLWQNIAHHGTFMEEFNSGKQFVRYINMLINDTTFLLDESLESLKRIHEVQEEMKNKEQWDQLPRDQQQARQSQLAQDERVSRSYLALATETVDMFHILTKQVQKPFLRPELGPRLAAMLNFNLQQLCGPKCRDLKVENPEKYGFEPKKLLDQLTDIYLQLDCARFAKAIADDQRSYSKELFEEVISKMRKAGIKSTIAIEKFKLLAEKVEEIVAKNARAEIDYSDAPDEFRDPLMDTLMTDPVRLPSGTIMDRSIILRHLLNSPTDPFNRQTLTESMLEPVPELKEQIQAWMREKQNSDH
# Some of the results follow.
# Compound: CN1CCN(c2nc(C3=C(c4c[nH]c5ccccc45)C(=O)NC3=O)c3ccccc3n2)CC1 [sotrastaurin]
# Test: log2 fold change, soluble protein after heating vs DMSO (PISA); higher = thermal stabilisation; K562 lysate, 10 uM; active = over 0.2 and 3.5 SD of the protein, either way, in both replicates (recomputed)
# In short: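 Dounce homogenisation of K562 pellets in PBS pH 7.4 with 1 mM MgCl2 produced a crude extract, used at 1 mg/mL protein. Exposure to 10 μM compound lasted 30 min, and aliquots were then heated for 3 min across 48°C-58°C, pooled and brought to 0.5% NP-40 at 4°C. The supernatant after 21,000xg for 90 min was quantified by TMTpro 16plex LC-MS/MS with channel sums equalised. Duplicate values are given as log-two fold change in thermal stability relative to solvent controls.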
row,Target,log2 fold change
1,TXN2 (UniProt Q99757),inactive: -0.026
2,TWISTNB (UniProt Q3B726),inactive: -0.019
3,UBE2L3 isoform 3 (UniProt P68036),inactive: 0.016
4,UBE2R2 (UniProt Q712K3),inactive: 0.003
5,TXNL4A (UniProt P83876),inactive: 0
6,TXNRD1 (UniProt Q16881),inactive: 0.014
7,UBE2Q1 (UniProt Q7Z7E8),inactive: -0.01
8,TUBG1 (UniProt P23258),inactive: 0.021
9,UBE2E1 (UniProt P51965),inactive: -0.015
10,UCHL3 (UniProt P15374),inactive: 0.01
11,TUBB1 (UniProt Q9H4B7),inactive: -0.045
12,UBE2I (UniProt P63279),inactive: -0.013
13,TXLNA (UniProt P40222),inactive: -0.02
14,TTN isoform 12 (UniProt Q8WZ42),inactive: -0.04
15,UBR2 isoform 4 (UniProt Q8IWV8),inactive: 0.006
16,TUBGCP2 isoform 4 (UniProt Q9BSJ2),inactive: 0
17,TXNRD2 (UniProt Q9NNW7),inactive: -0.021
18,UAP1L1 (UniProt Q3KQV9),inactive: 0.031
19,TUT4 (UniProt Q5TAX3),inactive: 0.035
20,UCHL5 isoform 3 (UniProt Q9Y5K5),inactive: -0.005
21,TTPAL (UniProt Q9BTX7),inactive: -0.024
22,UBE2B (UniProt P63146),inactive: -0.021
23,UBE4B isoform 4 (UniProt O95155),inactive: -0.012

# Given as tab-separated lines: part of the list above.
row	Target	log2 fold change
1	TXN2 (UniProt Q99757)	inactive: -0.026
9	UBE2E1 (UniProt P51965)	inactive: -0.015
10	UCHL3 (UniProt P15374)	inactive: 0.01
12	UBE2I (UniProt P63279)	inactive: -0.013
19	TUT4 (UniProt Q5TAX3)	inactive: 0.035
20	UCHL5 isoform 3 (UniProt Q9Y5K5)	inactive: -0.005
23	UBE4B isoform 4 (UniProt O95155)	inactive: -0.012
